The results are deposited in PubChem (AID504749; NCATS, 2011).

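Malaria parasite (P. falciparum) lines kept in red blood cells; parasite DNA is measured by SYBR Green fluorescence after lysis, 72 h after compound addition. Each compound was titrated across a series from about 0.000037 to 29 µM. The number is the fitted AC50, the concentration giving a half-maximal change in signal; a lower value means higher potency, whether the curve shows a decrease or an increase. Calls follow the curve class and fit quality: every row here is inconclusive, covering signal-raising curves and weak, poorly fitted, partial or highest-dose-only inhibition curves.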

Values are in µM. All entries here are filed as inconclusive. These entries are mostly ones the record files as inconclusive; other results of the assay are not listed here. Potencies fitted to partial, single-point or poorly fitting curves are rough. Some entries filed as inconclusive have a full curve.

| # | SMILES | tested on / at | potency (µM) | remark |
|---|---|---|---|---|
| 1 | `O=C(O[C@H]1CN2CCC1CC2)N1CCc2ccccc2[C@@H]1c1ccccc1` | CP269 | 6.012 | inhibitor, partial curve, poor fit |
| 2 | `O=C(O[C@H]1CN2CCC1CC2)N1CCc2ccccc2[C@@H]1c1ccccc1` | GB4 | 4.256 | inhibitor, partial curve |
| 3 | `O=C(O[C@H]1CN2CCC1CC2)N1CCc2ccccc2[C@@H]1c1ccccc1` | CP211 | 9.528 | inhibitor, partial curve |
| 4 | `O=C(Nc1ccc([N+](=O)[O-])cc1Cl)c1cc(Cl)ccc1O` | ATS95 | 0.7943 | inhibitor, full curve, poor fit |
| 5 | `O=C(Nc1ccc([N+](=O)[O-])cc1Cl)c1cc(Cl)ccc1O` | TAB109 | 1.122 | inhibitor, full curve |
| 6 | `O=C(Nc1ccc([N+](=O)[O-])cc1Cl)c1cc(Cl)ccc1O` | CP250 | 0.8913 | inhibitor, partial curve |
| 7 | `O=C(Nc1ccc([N+](=O)[O-])cc1Cl)c1cc(Cl)ccc1O` | PC15 | 14.13 | inhibitor, partial curve, poor fit |
| 8 | `O=C(Nc1ccc([N+](=O)[O-])cc1Cl)c1cc(Cl)ccc1O` | CP247 | 1 | inhibitor, full curve |
| 9 | `O=C(Nc1ccc([N+](=O)[O-])cc1Cl)c1cc(Cl)ccc1O` | CP252 | 1 | inhibitor, full curve |
| 10 | `O=C(Nc1ccc([N+](=O)[O-])cc1Cl)c1cc(Cl)ccc1O` | AA1029 | 1.122 | inhibitor, full curve |
| 11 | `O=C(Nc1ccc([N+](=O)[O-])cc1Cl)c1cc(Cl)ccc1O` | CP201 | 0.4775 | inhibitor, partial curve, poor fit |
| 12 | `O=C(Nc1ccc([N+](=O)[O-])cc1Cl)c1cc(Cl)ccc1O` | P94_40 | 0.3981 | inhibitor, full curve |
| 13 | `O=C(Nc1ccc([N+](=O)[O-])cc1Cl)c1cc(Cl)ccc1O` | HB3 | 1 | inhibitor, partial curve |
| 14 | `O=C(Nc1ccc([N+](=O)[O-])cc1Cl)c1cc(Cl)ccc1O` | DIV30 | 0.3793 | inhibitor, full curve |
| 15 | `O=C(Nc1ccc([N+](=O)[O-])cc1Cl)c1cc(Cl)ccc1O` | CP211 | 0.5358 | inhibitor, full curve |
| 16 | `O=C(Nc1ccc([N+](=O)[O-])cc1Cl)c1cc(Cl)ccc1O` | CP194 | 0.4256 | inhibitor, full curve |
| 17 | `O=C(Nc1ccc([N+](=O)[O-])cc1Cl)c1cc(Cl)ccc1O` | CP266 | 1.069 | inhibitor, full curve |
| 18 | `O=C(Nc1ccc([N+](=O)[O-])cc1Cl)c1cc(Cl)ccc1O` | DFO2036 | 0.4467 | inhibitor, full curve |
| 19 | `O=C(Nc1ccc([N+](=O)[O-])cc1Cl)c1cc(Cl)ccc1O` | CP217 | 0.8913 | inhibitor, full curve |
| 20 | `O=C(Nc1ccc([N+](=O)[O-])cc1Cl)c1cc(Cl)ccc1O` | CP262 | 1.346 | inhibitor, full curve |
| 21 | `O=C(Nc1ccc([N+](=O)[O-])cc1Cl)c1cc(Cl)ccc1O` | P93_24 | 0.3981 | inhibitor, full curve |
| 22 | `O=C(Nc1ccc([N+](=O)[O-])cc1Cl)c1cc(Cl)ccc1O` | CP192 | 0.3793 | inhibitor, full curve |
| 23 | `O=C(Nc1ccc([N+](=O)[O-])cc1Cl)c1cc(Cl)ccc1O` | CP265 | 1.122 | inhibitor, partial curve |
| 24 | `O=C(Nc1ccc([N+](=O)[O-])cc1Cl)c1cc(Cl)ccc1O` | CP325 | 1.51 | inhibitor, full curve |
| 25 | `O=C(Nc1ccc([N+](=O)[O-])cc1Cl)c1cc(Cl)ccc1O` | ATS189 | 0.7943 | inhibitor, full curve |
| 26 | `O=C(Nc1ccc([N+](=O)[O-])cc1Cl)c1cc(Cl)ccc1O` | CP329 | 0.6012 | inhibitor, full curve |
| 27 | `O=C(Nc1ccc([N+](=O)[O-])cc1Cl)c1cc(Cl)ccc1O` | CP315 | 0.6746 | inhibitor, full curve |
| 28 | `O=C(Nc1ccc([N+](=O)[O-])cc1Cl)c1cc(Cl)ccc1O` | CP256 | 1.413 | inhibitor, single point |
| 29 | `CNC[C@H](O)c1ccc(OC(=O)C(C)(C)C)c(OC(=O)C(C)(C)C)c1` | CP269 | 0.6424 | inhibitor, partial curve, poor fit |
| 30 | `CNC[C@H](O)c1ccc(OC(=O)C(C)(C)C)c(OC(=O)C(C)(C)C)c1` | W2 | 0.5103 | inhibitor, full curve, poor fit |
| 31 | `CNC[C@H](O)c1ccc(OC(=O)C(C)(C)C)c(OC(=O)C(C)(C)C)c1` | CP215 | 8.087 | inhibitor, single point |

Repeated from the top, 4 entries:

For O=C(O[C@H]1CN2CCC1CC2)N1CCc2ccccc2[C@@H]1c1ccccc1 [CP269] the result was potency 6.012 µM (inhibitor, partial curve, poor fit).
For O=C(O[C@H]1CN2CCC1CC2)N1CCc2ccccc2[C@@H]1c1ccccc1 [GB4] the result was potency 4.256 µM (inhibitor, partial curve).
For O=C(O[C@H]1CN2CCC1CC2)N1CCc2ccccc2[C@@H]1c1ccccc1 [CP211] the result was potency 9.528 µM (inhibitor, partial curve).
For O=C(Nc1ccc([N+](=O)[O-])cc1Cl)c1cc(Cl)ccc1O [ATS95] the result was potency 0.7943 µM (inhibitor, full curve, poor fit).